## Cleaved PARP after 72 h of treatment

Source: doi:10.1371/journal.pone.0140310, primary screening data, rounded.

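Human melanoma cells were exposed to two drugs together for 72 h in 1,536-well plates and read by automated microscopy after fixing and staining. The read-out is the fraction of cleaved-PARP-positive nuclei, in % of that fraction in the DMSO control; 200 means twice the control level of this apoptosis marker. Every drug was used at one fixed concentration, the higher of two screened. The file gives one value for each pair and line, without errors, so small differences may be noise. The marker varies much from line to line, for technical or biological reasons.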 This is part of the screen, not chosen by result. An entry leaves out what has no value listed here. A dash means that no value is listed here.

Every entry is a combination with KU-55933 at 5 µM: O=c1cc(-c2cccc3c2Sc2ccccc2S3)oc(N2CCOCC2)c1

Drugs:
crizotinib, 1 µM: C[C@@H](Oc1cc(-c2cnn(C3CCNCC3)c2)cnc1N)c1c(Cl)ccc(F)c1Cl
XAV939, 10 µM: Oc1nc(-c2ccc(C(F)(F)F)cc2)nc2c1CSCC2
MK-1775, 0.1 µM: C=CCn1c(=O)c2cnc(Nc3ccc(N4CCN(C)CC4)cc3)nc2n1-c1cccc(C(C)(C)O)n1
fludarabine, 1 µM: Nc1nc(F)nc2c1ncn2[C@@H]1O[C@H](CO)[C@@H](O)[C@@H]1O
A-769662, 10 µM: N#Cc1c(O)c2c(-c3ccc(-c4ccccc4O)cc3)csc2[nH]c1=O
decitabine, 0.5 µM: Nc1ncn([C@H]2C[C@H](O)[C@@H](CO)O2)c(=O)n1
everolimus, 0.1 µM: CO[C@H]1C[C@@H]2CC[C@@H](C)[C@@](O)(O2)C(=O)C(=O)N2CCCC[C@H]2C(=O)O[C@H]([C@H](C)C[C@@H]2CC[C@@H](OCCO)[C@H](OC)C2)CC(=O)[C@H](C)/C=C(\C)[C@@H](O)[C@@H](OC)C(=O)[C@H](C)C[C@H](C)/C=C/C=C/C=C/1C
BMS-536924, 1 µM: Cc1cc(N2CCOCC2)cc2[nH]c(-c3c(NC[C@@H](O)c4cccc(Cl)c4)cc[nH]c3=O)nc12

| # | Cell line | XAV939 | fludarabine | decitabine | MK-1775 | crizotinib | everolimus | A-769662 | BMS-536924 |
|---|---|---|---|---|---|---|---|---|---|
| 1 | SK-MEL-30 | 131 | 396 | 49.2 | 275 | 83.1 | 145 | 75.1 | 83.8 |
| 2 | LOX IMVI | 132 | 145 | 89.2 | 110 | 156 | 149 | 87.6 | 72.2 |
| 3 | WM3619 | 142 | 128 | 121 | 229 | 67.2 | 239 | 103 | 283 |
| 4 | A375 | 26.3 | 105 | 39.2 | 590 | 102 | 95.4 | 19.0 | 48.8 |
| 5 | WM1745 | 147 | - | - | 243 | - | - | 101 | 177 |
| 6 | SK-MEL-2 | 79.1 | 4920 | 131 | 117 | 166 | 184 | 96.8 | 228 |
| 7 | G-361 | 102 | 164 | 66.0 | 168 | 61.5 | 272 | 134 | 128 |
| 8 | WM115 | 56.2 | 68.7 | 418 | 275 | 148 | 168 | 144 | 62.3 |
| 9 | MZ2-MEL | 58.6 | 75.6 | 111 | 94.5 | 78.0 | 93.7 | 109 | 197 |
| 10 | MEL-HO | 116 | 201 | 94.7 | 54.8 | 83.7 | 146 | 123 | 55.9 |
| 11 | A2058 | 120 | 140 | 178 | 175 | 114 | 130 | 80.0 | 221 |
| 12 | IST-MEL1 | 123 | 130 | 170 | 129 | 186 | 45.3 | 276 | 61.8 |
| 13 | COLO 829 | 107 | 75.6 | 158 | 131 | 82.0 | 129 | 22.8 | 78.3 |
| 14 | RVH-421 | 85.1 | 192 | 44.6 | 53.5 | 204 | 74.3 | 89.7 | 60.3 |
| 15 | LB2518-MEL | 63.4 | 142 | 118 | 127 | 122 | 142 | 126 | 76.8 |
| 16 | WM1716 | 113 | 162 | 201 | 177 | 141 | 116 | 144 | 252 |
| 17 | 501mel | 81.5 | 10600 | 52.0 | 137 | 63.4 | 97.5 | 139 | 143 |
| 18 | MeWo | 20.2 | 53.0 | 92.3 | 54.7 | 152 | 173 | 45.5 | 74.4 |
| 19 | RPMI-7951 | 85.1 | 135 | 175 | 114 | 191 | 185 | 112 | 103 |
| 20 | WM3526 | 121 | 2110 | 87.3 | 279 | 131 | 242 | 32.5 | 111 |
| 21 | WM451Lu | 69.5 | 107 | 560 | 64.6 | 149 | 497 | 29.6 | 216 |
| 22 | COLO 792 | 98.6 | 108 | 132 | 106 | 66.4 | 190 | 127 | 224 |
| 23 | C32 | 161 | 75.7 | 194 | 108 | 86.3 | 171 | 79.6 | 127 |
| 24 | UACC-257 | 22.1 | 1170 | 54.5 | 25.5 | 118 | 58.1 | 38.8 | 66.2 |
| 25 | UACC-62 | 128 | 211 | 349 | 198 | 46.8 | 253 | 48.4 | 90.9 |
| 26 | IPC-298 | 45.7 | 71.7 | 131 | 58.7 | 39.8 | 49.4 | 59.6 | 154 |
| 27 | A101D | 45.8 | 266 | 162 | 171 | 126 | 317 | 182 | 48.2 |
| 28 | SK-MEL-28 | 79.8 | 1630 | 134 | 306 | 118 | 54.9 | 57.3 | 88.5 |
| 29 | SK-MEL-5 | 174 | 1640 | 140 | 169 | 174 | 99.2 | 140 | 53.6 |
| 30 | COLO 800 | 49.7 | 69.9 | 108 | 175 | 44.3 | 261 | 113 | 193 |

For reference, 2 entries once more:

* COLO 792 : XAV939: 98.6; fludarabine: 108; decitabine: 132; MK-1775: 106; crizotinib: 66.4; everolimus: 190; A-769662: 127; BMS-536924: 224
* COLO 829 : XAV939: 107; fludarabine: 75.6; decitabine: 158; MK-1775: 131; crizotinib: 82.0; everolimus: 129; A-769662: 22.8; BMS-536924: 78.3